Source: the supplement of paper PMC8728848
Some of the results follow.

How the values were obtained:
Assay in all cases: glycan array binding signal (z-score within array); higher = stronger binding
Conditions in all cases: glycan notation: IUPAC condensed, linker removed
[1] = target: Neu5Ac(a2-3)Gal(b1-4)GlcNAc(b1-6)GalNAc
Procedure, shortened: (§1)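 Glycan array binding is given as a within-array Z-score, which can be read as non-binding when negative. The arrays, 3228 of them, came from the Consortium for Functional Glycomics database and were retained only where the protein sequence was available. Z-scores were averaged across arrays of the same protein sequence at different concentrations or buffers and across linkers.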

[2] = target: Neu5Ac(a2-3)Gal(b1-4)GlcNAc(b1-6)[Gal(b1-3)]GalNAc
Procedure, shortened: as §1

[3] = target: Neu5Ac(a2-3)Gal(b1-4)GlcNAc(b1-6)[Neu5Ac(a2-3)Gal(b1-3)]GalNAc
Procedure, shortened: as §1

[4] = target: Neu5Ac(a2-3)Gal(b1-4)GlcNAc6S
Procedure, shortened: as §1

[5] = target: Neu5Ac(a2-3)Gal(b1-4)[Fuc(a1-3)]GlcNAc
Procedure, shortened: as §1

[6] = target: Neu5Ac(a2-3)Gal(b1-4)[Fuc(a1-3)]GlcNAc(b1-2)Man
Procedure, shortened: as §1

[7] = target: Neu5Ac(a2-3)Gal(b1-4)[Fuc(a1-3)]GlcNAc(b1-3)Gal
Procedure, shortened: as §1

[8] = target: Neu5Ac(a2-3)Gal(b1-4)[Fuc(a1-3)]GlcNAc(b1-3)Gal(b1-4)GlcNAc
Procedure, shortened: as §1

[9] = target: Neu5Ac(a2-3)Gal(b1-4)[Fuc(a1-3)]GlcNAc(b1-3)Gal(b1-4)[Fuc(a1-3)]GlcNAc(b1-3)Gal(b1-4)[Fuc(a1-3)]GlcNAc
Procedure, shortened: as §1

[10] = target: Neu5Ac(a2-3)Gal(b1-4)[Fuc(a1-3)]GlcNAc(b1-3)GalNAc
Procedure, shortened: as §1

[11] = target: Neu5Ac(a2-3)Gal(b1-4)[Fuc(a1-3)]GlcNAc(b1-6)[Gal(b1-3)]GalNAc
Procedure, shortened: as §1

[12] = target: Neu5Ac(a2-3)Gal(b1-4)[Fuc(a1-3)]GlcNAc(b1-6)[Neu5Ac(a2-3)Gal(b1-3)]GalNAc
Procedure, shortened: as §1

[13] = target: Neu5Ac(a2-3)Gal(b1-4)[Fuc(a1-3)]GlcNAc6S
Procedure, shortened: as §1

[14] = target: Neu5Ac(a2-3)Gal6S(b1-4)GlcNAc
Procedure, shortened: as §1

[15] = target: Neu5Ac(a2-3)Gal6S(b1-4)[Fuc(a1-3)]GlcNAc
Procedure, shortened: as §1

Neu5Ac(a2-3)GalNAc = target: Neu5Ac(a2-3)GalNAc
Procedure, shortened: as §1

[16] = target: Neu5Ac(a2-3)GalNAc(b1-4)GlcNAc
Procedure, shortened: as §1

[17] = target: Neu5Ac(a2-3)[GalNAc(b1-4)]Gal(b1-4)Glc
Procedure, shortened: as §1

[18] = target: Neu5Ac(a2-3)[GalNAc(b1-4)]Gal(b1-4)GlcNAc
Procedure, shortened: as §1

[19] = target: Neu5Ac(a2-3)[GalNAc(b1-4)]Gal(b1-4)GlcNAc(b1-3)GalNAc
Procedure, shortened: as §1

[20] = target: Neu5Ac(a2-3)[Neu5Ac(a2-6)]GalNAc
Procedure, shortened: as §1

Neu5Ac(a2-6)Gal = target: Neu5Ac(a2-6)Gal
Procedure, shortened: as §1

[21] = target: Neu5Ac(a2-6)Gal(b1-3)GlcNAc(b1-3)[Gal(b1-4)GlcNAc(b1-6)]Gal(b1-4)Glc
Procedure, shortened: as §1

Neu5Ac(a2-6)Gal(b1-4)Glc = target: Neu5Ac(a2-6)Gal(b1-4)Glc
Procedure, shortened: as §1

[22] = target: Neu5Ac(a2-6)Gal(b1-4)GlcNAc
Procedure, shortened: as §1

[23] = target: Neu5Ac(a2-6)Gal(b1-4)GlcNAc(b1-2)Man
Procedure, shortened: as §1

[24] = target: Neu5Ac(a2-6)Gal(b1-4)GlcNAc(b1-2)Man(a1-3)Man(b1-4)GlcNAc(b1-4)GlcNAc
Procedure, shortened: as §1

[25] = target: Neu5Ac(a2-6)Gal(b1-4)GlcNAc(b1-2)Man(a1-3)[Gal(b1-4)GlcNAc(b1-2)Man(a1-6)]Man(b1-4)GlcNAc(b1-4)GlcNAc
Procedure, shortened: as §1

[26] = target: Neu5Ac(a2-6)Gal(b1-4)GlcNAc(b1-2)Man(a1-3)[GlcNAc(b1-2)Man(a1-6)]Man(b1-4)GlcNAc(b1-4)GlcNAc
Procedure, shortened: as §1

[27] = target: Neu5Ac(a2-6)Gal(b1-4)GlcNAc(b1-2)Man(a1-3)[GlcNAc(b1-4)][Neu5Ac(a2-6)Gal(b1-4)GlcNAc(b1-2)Man(a1-6)]Man(b1-4)GlcNAc(b1-4)GlcNAc
Procedure, shortened: as §1

[28] = target: Neu5Ac(a2-6)Gal(b1-4)GlcNAc(b1-2)Man(a1-3)[Man(a1-6)]Man(b1-4)GlcNAc(b1-4)GlcNAc
Procedure, shortened: as §1

B1: Langerin K299A/K313A (Homo sapiens), Q9UJ71 (protein)
chain: STLNAQIPELKSDLEKASALNTKIRALQGSLENMSKLLKRQNDILQVVSQGWKYFKGNFYYFSLIPKTWYSAEQFCVSRNSHLTSVTSESEQEFLYKTAGGLIYWIGLTKAGMEGDWSWVDDTPFNKVQSARFWIPGEPNNAGNNEHCGNIAAPSLQAWNDAPCDATFLFICKRPYVPSEP
- glycan array binding signal (z-score) [1]: -0.362
- glycan array binding signal (z-score) [2]: 0.003
- glycan array binding signal (z-score) [3]: -1.12
- glycan array binding signal (z-score) [4]: -0.255
- glycan array binding signal (z-score) [5]: -0.624
- glycan array binding signal (z-score) [6]: 0.642
- glycan array binding signal (z-score) [7]: -0.991
- glycan array binding signal (z-score) [8]: 2.63
- glycan array binding signal (z-score) [9]: 0.905
- glycan array binding signal (z-score) [10]: 3.01
- glycan array binding signal (z-score) [11]: 2.09
- glycan array binding signal (z-score) [12]: 1.98
- glycan array binding signal (z-score) [13]: 0.192
- glycan array binding signal (z-score) [14]: 0.423
- glycan array binding signal (z-score) [15]: -0.88
- glycan array binding signal (z-score) (Neu5Ac(a2-3)GalNAc): -0.957
- glycan array binding signal (z-score) [16]: -1.09
- glycan array binding signal (z-score) [17]: -0.76
- glycan array binding signal (z-score) [18]: -0.463
- glycan array binding signal (z-score) [19]: 0.982
- glycan array binding signal (z-score) [20]: -0.582
- glycan array binding signal (z-score) (Neu5Ac(a2-6)Gal): 0.01
- glycan array binding signal (z-score) [21]: 0.329
- glycan array binding signal (z-score) (Neu5Ac(a2-6)Gal(b1-4)Glc): 0.274
- glycan array binding signal (z-score) [22]: -0.562
- glycan array binding signal (z-score) [23]: 0.121
- glycan array binding signal (z-score) [24]: 0.243
- glycan array binding signal (z-score) [25]: -1.06
- glycan array binding signal (z-score) [26]: -1.05
- glycan array binding signal (z-score) [27]: -1.33
- glycan array binding signal (z-score) [28]: 0.566
